Experimental data published in the supplement of paper PMC11732987, “Enantioselective OTUD7B fragment discovery through chemoproteomics screening and high-throughput optimisation” (Communications Chemistry, 2025).
Some of the results follow. The data scatter; read single values as rough.

Compound: ClCC(=O)N[C@H]1CCCc2ccccc12
Assay: log2 mean competition ratio of IA-DTB cysteine labelling (DMSO/compound) (log2 ratio); higher = stronger cysteine engagement by compound
Conditions: 50 µM; treatment time: 4 h; cell line lysate: HEK293T
Method: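 IA-DTB competitive cysteine chemoproteomics in HEK293T RIPA lysate. Lysates were treated with compound 29 or 30 at 50 or 200 µM for 4 h, then IA-DTB (500 µM, 1 h), trypsin-digested, NeutrAvidin-enriched and analysed by diaPASEF. Competition ratio = intensity DMSO / intensity compound (n=4 treated, n=64 DMSO); binding: mean log2 CR ≥ 1 and p ≤ 0.05 plus QC filters. Target is the cysteine site.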

Row | Target | log2 mean competition ratio
1 | COG4 C240 (UniProt Q9H9E3) | 0.267
2 | CNOT7 C67 | 0.0942
3 | CPSF4 C124 (UniProt O95639) | 0.389
4 | CLTCL1 C824 (UniProt P53675) | -0.105
5 | CHORDC1 C86 (UniProt Q9UHD1) | 0.244
6 | COBL C993 (UniProt O75128) | 0.0475
7 | COG8 C96 (UniProt Q96MW5) | 0.0993
8 | COPS3 C25 (UniProt Q9UNS2) | 0.175
9 | COQ7 C137 (UniProt Q99807) | -0.221
10 | CHD9 C1705 (UniProt Q3L8U1) | -0.29
11 | CHML C487 (UniProt P26374) | 0.123
12 | CPD C195 (UniProt O75976) | 0.174
13 | CNST C439 (UniProt Q6PJW8) | 0.259
14 | CLTCL1 C778 (UniProt P53675) | -0.048
15 | CKAP2L C124 (UniProt Q8IYA6) | 0.547
16 | COMMD4 C107 (UniProt Q9H0A8) | 0.343
17 | CHTF18 C542 (UniProt Q8WVB6) | -0.402
18 | COPG2 C723 (UniProt Q9UBF2) | -0.511
19 | COPS3 C383 (UniProt Q9UNS2) | -0.24
20 | CLUAP1 C292 | 0.389

Same assay, conditions: 200 µM; treatment time: 4 h; cell line lysate: HEK293T

Row | Target | log2 mean competition ratio
21 | COG4 C240 (UniProt Q9H9E3) | -0.179
22 | CNOT7 C67 | -0.0912
23 | CPSF4 C124 (UniProt O95639) | 0.437
24 | CLTCL1 C824 (UniProt P53675) | 0.536
25 | CHORDC1 C86 (UniProt Q9UHD1) | -0.0181
26 | COBL C993 (UniProt O75128) | -0.0249
27 | COG8 C96 (UniProt Q96MW5) | 0.596
28 | COPS3 C25 (UniProt Q9UNS2) | 0.176
29 | COQ7 C137 (UniProt Q99807) | -0.399
30 | CHD9 C1705 (UniProt Q3L8U1) | 0.0868
31 | CHML C487 (UniProt P26374) | -0.221
32 | CPD C195 (UniProt O75976) | 0.205
33 | CNST C439 (UniProt Q6PJW8) | 0.0124
34 | CLTCL1 C778 (UniProt P53675) | -0.605
35 | CKAP2L C124 (UniProt Q8IYA6) | -0.213
36 | COMMD4 C107 (UniProt Q9H0A8) | -0.194
37 | CHTF18 C542 (UniProt Q8WVB6) | 0.00482
38 | COPG2 C723 (UniProt Q9UBF2) | 0.12
39 | COPS3 C383 (UniProt Q9UNS2) | 0.229
40 | CLUAP1 C292 | -0.23
